We go through one substance from publication PMC10425460.

No constants are given. Whether binding was seen depends on the method and setting. In cells and extracts the contact can be indirect. For some assays here: Binding can be weak; no strength is given. Where a sequence is shown, tags or fusion partners need not be part of it.

Experiment [1] has as its target T1, Exo84b:GFP (Exo84bp::Exo84b:GFP) (Arabidopsis thaliana) (UniProt Q9LTB0).
T1 sequence: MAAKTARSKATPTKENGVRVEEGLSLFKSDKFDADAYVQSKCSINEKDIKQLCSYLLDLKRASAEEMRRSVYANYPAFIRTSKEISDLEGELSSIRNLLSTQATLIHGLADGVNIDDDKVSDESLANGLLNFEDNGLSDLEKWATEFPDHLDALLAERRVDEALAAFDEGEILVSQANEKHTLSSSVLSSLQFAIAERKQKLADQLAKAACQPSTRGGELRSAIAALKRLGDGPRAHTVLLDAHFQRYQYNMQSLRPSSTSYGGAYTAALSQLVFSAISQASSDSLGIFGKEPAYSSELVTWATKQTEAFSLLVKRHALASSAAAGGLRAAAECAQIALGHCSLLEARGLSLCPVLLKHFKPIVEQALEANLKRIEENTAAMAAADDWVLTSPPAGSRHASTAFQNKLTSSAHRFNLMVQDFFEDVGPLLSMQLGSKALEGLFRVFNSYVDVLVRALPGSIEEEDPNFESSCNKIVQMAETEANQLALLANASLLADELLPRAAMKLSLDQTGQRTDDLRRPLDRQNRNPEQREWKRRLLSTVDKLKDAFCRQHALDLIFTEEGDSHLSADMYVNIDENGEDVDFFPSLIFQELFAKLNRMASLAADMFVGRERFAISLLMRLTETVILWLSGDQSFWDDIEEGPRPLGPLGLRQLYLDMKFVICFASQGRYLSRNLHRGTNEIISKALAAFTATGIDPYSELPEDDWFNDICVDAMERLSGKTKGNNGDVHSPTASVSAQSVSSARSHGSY
The experiment in a line: co-IP; GFP-Trap_A on extracts of 10-day-old stable transgenic Arabidopsis seedlings in Nonidet P-40 buffer with 1 mM PMSF, 1 h at 4 °C; endogenous VAP27 detected by blot with a VAP27 antibody that detects VAP27-1 and -3.

The target of experiment [2] is T2, Exo84c:GFP (Exo84cp::Exo84c:GFP in exo84c mutant background) (Arabidopsis thaliana) (UniProt Q9SY60).
T2 sequence: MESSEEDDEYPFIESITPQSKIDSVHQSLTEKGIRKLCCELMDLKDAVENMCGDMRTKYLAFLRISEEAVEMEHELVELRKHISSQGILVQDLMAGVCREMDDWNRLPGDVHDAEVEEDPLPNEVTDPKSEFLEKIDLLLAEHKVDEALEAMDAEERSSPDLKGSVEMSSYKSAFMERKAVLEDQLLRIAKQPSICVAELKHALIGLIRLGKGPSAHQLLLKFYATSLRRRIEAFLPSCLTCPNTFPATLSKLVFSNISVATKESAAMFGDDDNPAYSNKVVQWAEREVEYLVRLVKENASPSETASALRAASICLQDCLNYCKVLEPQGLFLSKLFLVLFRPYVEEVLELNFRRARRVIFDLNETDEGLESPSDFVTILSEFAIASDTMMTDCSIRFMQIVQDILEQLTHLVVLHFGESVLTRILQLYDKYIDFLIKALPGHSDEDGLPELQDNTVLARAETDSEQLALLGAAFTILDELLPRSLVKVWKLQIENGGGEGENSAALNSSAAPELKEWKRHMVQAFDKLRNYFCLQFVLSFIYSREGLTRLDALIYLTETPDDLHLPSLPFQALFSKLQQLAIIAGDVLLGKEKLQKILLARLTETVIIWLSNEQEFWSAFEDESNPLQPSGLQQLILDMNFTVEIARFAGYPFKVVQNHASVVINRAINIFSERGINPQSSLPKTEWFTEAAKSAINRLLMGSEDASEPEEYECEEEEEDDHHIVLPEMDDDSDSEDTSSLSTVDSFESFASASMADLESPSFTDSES
The experiment is described as above.

As to endogenous VAP27, the values for the binding entry in experiment [1] and in experiment [2] were “no binding” and “binds”, respectively.
